Test results from the supplement of paper PMC10011410.

System: U-2 OS
Assay: AUC of Cytotox red (membrane-compromised) object count (AUC (object count x time)); higher = more apoptotic or dead cells
Settings: 20 µM
Experimental: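 Live-cell Incucyte imaging of U-2 OS cells with Caspase-3/7 Green and Cytotox Red reagents. Compounds were tested mostly at 5, 10 and 20 uM, and cells were imaged every 4 h for up to 60 h. Value is the area under the curve of positive object counts over time, per channel: green = caspase 3/7, red = membrane-compromised, overlap = both.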

COC(=O)[C@]1(C)CC[C@]2(C)CC[C@]3(C)C4=CC=C5C(=CC(=O)C(O)=C5C)[C@]4(C)CC[C@@]3(C)[C@@H]2C1
AUC of Cytotox red: 862

Values are raw readings; no control value is given beside them.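 Values average three technical replicates, each on its own plate. On all plates, reagent-free control wells corrected for intrinsic cell fluorescence and DMSO-treated wells acted as vehicle controls. No hit or active cutoff is set for these live-cell readings.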
